No constants are given. Whether binding was seen depends on the method and setting. Binding seen in cells or lysates may run through a third protein.
Molecular target: T1, ISOFLAVONE SYNTHASE2 (GmIFS2) (soybean (Glycine max)) (UniProt Q9SWR5)
T1 sequence: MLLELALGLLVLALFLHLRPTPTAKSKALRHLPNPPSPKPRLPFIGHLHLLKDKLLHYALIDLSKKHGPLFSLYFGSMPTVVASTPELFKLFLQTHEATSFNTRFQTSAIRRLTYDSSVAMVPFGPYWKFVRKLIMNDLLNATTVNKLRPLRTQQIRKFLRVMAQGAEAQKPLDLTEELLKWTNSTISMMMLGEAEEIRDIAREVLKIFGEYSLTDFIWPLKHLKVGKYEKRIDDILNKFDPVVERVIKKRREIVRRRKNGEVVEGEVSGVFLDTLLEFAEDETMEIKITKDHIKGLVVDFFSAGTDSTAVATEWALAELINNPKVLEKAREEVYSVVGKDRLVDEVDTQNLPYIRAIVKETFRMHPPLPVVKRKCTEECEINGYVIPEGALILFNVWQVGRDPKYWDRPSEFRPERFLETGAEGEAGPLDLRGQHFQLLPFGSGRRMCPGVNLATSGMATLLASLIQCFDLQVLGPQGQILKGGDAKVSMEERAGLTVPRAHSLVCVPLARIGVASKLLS
Experiment: split reporter; BiFC: GmADT-YC (or AtADT5, PvMATE8-YC, AtCRA1-YC) co-expressed with GmIFS2-YN in N. benthamiana leaves, 1:1 (v/v) co-infiltration, 35S promoter, confocal microscopy 48 h post-infiltration (Figure 7)

binding: no binding
Substance: PvMATE8, a protoanthocyanidin transporter protein from common bean

From publication PMC10845154
